Laboratory results reported in PubChem BioAssay AID328 (DTP/NCI, 2004).
The list does not hold the whole screen: it is rich in T/C values a quarter to a half above the control, in often repeated tests (any T/C) and in doses without a T/C. Further doses and runs are listed elsewhere. T/C: endpoint of the treated group in % of that of the vehicle group. Some entries give survivors of the animals treated and no T/C: the source holds a T/C of zero for them, seemingly a mark for toxic or unscored doses. Some doses without a T/C left all or most animals alive at the check, yet need not have been tolerated: survival well below the control is almost never listed, so the zero probably covers shortened survival too. Survivors were counted at the toxicity check, usually on the fifth day, unless a day is given; later deaths do not show. Schedule codes are those of the source, read here as Q, the interval in days (D) or hours (H), X, the number of doses. Some doses were run more than once; their values stand side by side, smallest first. For survival time, the PubChem record calls one and a half times the control and up active, and a quarter to a half above the control has no call in these data; cut-offs in other NCI protocols can differ. Some T/C values carry the count of animals alive at the toxicity check (mostly the fifth day); where none is given, no animal had died by that day.

Tested on: BDF1 mice, P388 leukemia ip, median survival T/C
Experiment: NCI In Vivo Anticancer Drug Screen. Data for tumor model P388 Leukemia (intraperitoneal) in B6D2F1 (BDF1) mice
Settings: T/C endpoint: median survival time, higher T/C = longer survival
Summary of the method: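 In tumour-bearing mice, survival after compound treatment is set against the vehicle group and given as a quotient.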

[1] = dose: 50.0 mg/kg/injection, schedule: Q01DX009 (ip), vehicle: Klucel (hydroxypropylcellulose) (HPC)
[2] = dose: 100.0 mg/kg/injection, schedule: Q01DX009 (ip), vehicle: Klucel (hydroxypropylcellulose) (HPC)
[3] = dose: 200.0 mg/kg/injection, schedule: Q01DX009 (ip), vehicle: Klucel (hydroxypropylcellulose) (HPC)
[4] = dose: 100.0 mg/kg/injection, schedule: Q01DX009 (ip), vehicle: saline
[5] = dose: 200.0 mg/kg/injection, schedule: Q01DX009 (ip), vehicle: saline
[6] = dose: 225.0 mg/kg/injection, schedule: Q01DX009 (ip), vehicle: Klucel (hydroxypropylcellulose) (HPC)
[7] = dose: 400.0 mg/kg/injection, schedule: Q01DX001 (ip), vehicle: Klucel (hydroxypropylcellulose) (HPC)
[8] = dose: 400.0 mg/kg/injection, schedule: Q01DX009 (ip), vehicle: saline
[9] = dose: 1.71 mg/kg/injection, schedule: Q04DX003 (ip), vehicle: saline
[10] = dose: 18.0 mg/kg/injection, schedule: Q01DX009 (ip), vehicle: saline
[11] = dose: 40.0 mg/kg/injection, schedule: Q01DX009 (ip), vehicle: saline
[12] = dose: 100.0 mg/kg/injection, schedule: Q01DX009 (ip), vehicle: saline with Tween-80
[13] = dose: 25.0 mg/kg/injection, schedule: Q01DX009 (ip), vehicle: saline with Tween-80
[14] = dose: 50.0 mg/kg/injection, schedule: Q01DX009 (ip), vehicle: saline with Tween-80
[15] = dose: 200.0 mg/kg/injection, schedule: Q04DX003 (ip), vehicle: saline with Tween-80
[16] = dose: 200.0 mg/kg/injection, schedule: Q01DX009 (ip), vehicle: saline with Tween-80
[17] = dose: 50.0 mg/kg/injection, schedule: Q01DX009 (ip), vehicle: saline
[18] = dose: 400.0 mg/kg/injection, schedule: Q04DX003 (ip), vehicle: saline with Tween-80

With `Nc1cccc2c1C(=O)c1cccc(NC(=O)c3ccccc3)c1C2=O` the T/C [1] was 126 % of control, the T/C [2] was 126 % of control and the T/C [3] was 128 % of control. The T/C (dose: 400.0 mg/kg/injection, schedule: Q01DX009 (ip), vehicle: Klucel (hydroxypropylcellulose) (HPC)) was 147 % of control.
`NC(Cc1ccccc1Cl)C(=O)O` (stereo not drawn) was tested, and the T/C [4] was 138 % of control and the T/C [5] was 133 % of control.
For `Cc1ccc(/C(C#N)=C2C=C(Br)/C(=N\O)C=C/2Cl)cc1`, the survivor count (dose: 150.0 mg/kg/injection, schedule: Q01DX009 (ip), vehicle: Klucel (hydroxypropylcellulose) (HPC)) was 0 of 6, the T/C [6] was 125 % of control and the survivor count [6] was 0 of 6. For the same molecule, the survivor count (dose: 335.0 mg/kg/injection, schedule: Q01DX009 (ip), vehicle: Klucel (hydroxypropylcellulose) (HPC)) was 0 of 6 and the survivor count [7] was 2 of 6.
With `CCOc1nn2nnnc2c2ccccc12` the survivor count (dose: 22.5 mg/kg/injection, schedule: Q01DX009 (ip), vehicle: saline with Tween-80) was 7 of 7, the survivor count (dose: 45.0 mg/kg/injection, schedule: Q01DX009 (ip), vehicle: saline with Tween-80) was 7 of 7 and the survivor count (dose: 90.0 mg/kg/injection, schedule: Q01DX009 (ip), vehicle: saline with Tween-80) was 7 of 7.
`COc1ccc2c(OC)c3ccoc3nc2c1OC` was tested, and the survivor count [1] was 6 of 6, the survivor count [2] was 6 of 6 and the survivor count [3] was 6 of 6.
In the case of `O=C(CSc1cc(-c2ccc(Cl)cc2)s[s+]1)c1ccc(Cl)cc1`, the T/C (dose: 200.0 mg/kg/injection, schedule: Q04DX003 (ip), vehicle: saline) is reported as 126 % of control [5 of 6 alive], the survivor count [8] is reported as 6 of 6 and the survivor count (dose: 400.0 mg/kg/injection, schedule: Q04DX003 (ip), vehicle: saline) is reported as 3 of 6 and 5 of 6.
With `C[n+]1ccc(C#N)c2ccccc21` the T/C [9] was 125 % of control, the survivor count [9] was 6 of 6 and the T/C [10] was 127 % of control. For the same molecule, the survivor count [10] was 1 of 6, the survivor count (dose: 27.0 mg/kg/injection, schedule: Q01DX009 (ip), vehicle: saline) was 0 of 6 and the survivor count (dose: 28.0 mg/kg/injection, schedule: Q01DX009 (ip), vehicle: saline) was 1 of 6. For the same molecule, the survivor count (dose: 30.0 mg/kg/injection, schedule: Q04DX003 (ip), vehicle: saline with Tween-80) was 1 of 6 and the survivor count [11] was 0 of 6.
`CC1(C)N=C(N)N=C(N)N1c1ccc(CNC(=O)Nc2cccc(S(=O)(=O)F)c2)cc1` was tested, and the survivor count (dose: 75.0 mg/kg/injection, schedule: Q01DX009 (ip), vehicle: saline) was 6 of 6, the T/C (dose: 100.0 mg/kg/injection, schedule: Q04DX003 (ip), vehicle: saline) was 145 % of control and the survivor count (dose: 150.0 mg/kg/injection, schedule: Q01DX009 (ip), vehicle: saline) was 6 of 6. The survivor count (dose: 300.0 mg/kg/injection, schedule: Q01DX009 (ip), vehicle: saline) was 6 of 6.
With `CCCSCCCC(=O)O` the survivor count (dose: 100.0 mg/kg/injection, schedule: Q04DX003 (ip), vehicle: Klucel (hydroxypropylcellulose) (HPC)) was 6 of 6.
In the case of `O=C1C=CC(=O)C(c2ccccc2)=C1`, the survivor count (dose: 100.0 mg/kg/injection, schedule: Q01DX001 (ip), vehicle: Klucel (hydroxypropylcellulose) (HPC)) is reported as 0 of 6, the survivor count (dose: 200.0 mg/kg/injection, schedule: Q01DX001 (ip), vehicle: Klucel (hydroxypropylcellulose) (HPC)) is reported as 0 of 6 and the survivor count [7] is reported as 0 of 6.
With `S=C(Nc1ccccc1)N(C1CCCCC1)C1CCCCC1` the T/C [12] was 135 % of control and the T/C (dose: 400.0 mg/kg/injection, schedule: Q01DX009 (ip), vehicle: saline with Tween-80) was 130 % of control.
For `CCN(CC)CCOC(=O)c1ccccc1Nc1cccc(C)c1`, the survivor count [4] was 3 of 6 and the survivor count (dose: 350.0 mg/kg/injection, schedule: Q04DX003 (ip), vehicle: saline) was 2 of 6.
In the case of `Cc1cccc(/C=N/Nc2ccccn2)n1`, the T/C (dose: 200.0 mg/kg/injection, schedule: Q01DX005 (ip), vehicle: saline with Tween-80) is reported as 125 % of control [4 of 6 alive] and the T/C (dose: 400.0 mg/kg/injection, schedule: Q01DX005 (ip), vehicle: saline with Tween-80) is reported as 144 % of control [4 of 6 alive].
For `O=Cc1ccc([N+](=O)[O-])s1`, the T/C (dose: 12.5 mg/kg/injection, schedule: Q01DX009 (ip), vehicle: saline with Tween-80) was 125 % of control, the T/C [13] was 127 % of control [5 of 6 alive] and the survivor count [14] was 0 of 6. The survivor count [12] was 0 of 6.
For `COc1cc(O)c2c(c1)OC(c1ccc(OC)c(O)c1)CC2=O` (stereo not drawn), the T/C (dose: 25.0 mg/kg/injection, schedule: Q01DX009 (ip), vehicle: alcohol) was 134 % of control.
`CCCCCCCC(=O)NN` was tested, and the survivor count (dose: 200.0 mg/kg/injection, schedule: Q04DX003 (ip), vehicle: water) was 4 of 6, the survivor count (dose: 400.0 mg/kg/injection, schedule: Q01DX009 (ip), vehicle: other) was 4 of 6 and the survivor count (dose: 400.0 mg/kg/injection, schedule: Q04DX003 (ip), vehicle: water) was 6 of 6.
With `NC(=O)NN=C1CCCCC1` the survivor count (dose: 70.0 mg/kg/injection, schedule: Q01DX009 (ip), vehicle: Klucel (hydroxypropylcellulose) (HPC)) was 0 of 6 and the survivor count (dose: 105.0 mg/kg/injection, schedule: Q04DX003 (ip), vehicle: Klucel (hydroxypropylcellulose) (HPC)) was 3 of 6.
`Cc1ccc(S(=O)(=O)Cl)c(Cl)c1` was tested, and the survivor count [15] was 6 of 6.
For `COc1ccc(C(Cn2ccnc2)Sc2ccc(Cl)c(Cl)c2)cc1` (stereo not drawn), the T/C [14] was 128 % of control and the survivor count [16] was 0 of 6.
`CC[N+](C)(C)Cc1ccccc1` was tested, and the survivor count (dose: 25.0 mg/kg/injection, schedule: Q01DX009 (ip), vehicle: saline) was 4 of 6, the survivor count [17] was 0 of 6 and the survivor count [4] was 0 of 6. The survivor count [5] was 0 of 6.
For `ClCc1ccc2ccccc2n1`, the T/C [16] was 145 % of control.
With `O=N[O-].[Co].[N-]=C=S.[NH2-].[NH2-].[NH2-].[NH2-]` the T/C [17] was 127 % of control [5 of 6 alive], the survivor count (dose: 100.0 mg/kg/injection, schedule: Q04DX003 (ip), vehicle: saline with Tween-80) was 3 of 6 and the survivor count [15] was 1 of 6.
`CCOc1ccc([N+](=O)[O-])cc1CN(CC)CC` was tested, and the survivor count (dose: 20.0 mg/kg/injection, schedule: Q01DX009 (ip), vehicle: saline) was 6 of 6 and the survivor count [11] was 1 of 6.
`C/C(=N\N=C(N)N)c1ccc(NC(=O)Nc2ccc(/C(C)=N/N=C(N)N)cc2)cc1` was tested, and the T/C (dose: 2.3 mg/kg/injection, schedule: Q04DX003 (ip), vehicle: saline) was 125 % of control and the T/C (dose: 3.6 mg/kg/injection, schedule: Q04DX003 (ip), vehicle: saline) was 131 % of control.
In the case of `COc1ccc(Cc2c3ccccc3cc[n+]2C)cc1Oc1ccc(Cc2c3ccccc3cc[n+]2C)cc1`, the survivor count (dose: 3.13 mg/kg/injection, schedule: Q01DX009 (ip), vehicle: saline) is reported as 2 of 6.
In the case of `O=[N+]([O-])c1ccc(OCCNS(=O)(=O)c2cccc(S(=O)(=O)F)c2)c(Cl)c1`, the survivor count [13] is reported as 5 of 6, the survivor count [14] is reported as 6 of 6 and the survivor count [12] is reported as 5 of 6. The survivor count [16] was 6 of 6.
With `COC(=O)/C=C1\C(C(=O)OC)=Cc2ccccc2N1C` the survivor count [18] was 6 of 6.
In the case of `O=C(O)CCCl`, the survivor count [8] is reported as 0 of 6.
`CCCCN(CCCC)CCNc1ccc(Cl)c2oc3cc(C)ccc3c(=O)c12` was tested, and the survivor count [18] was 5 of 6.
In the case of `Cn1c2nc(=O)n(-c3ccccc3)c(=O)c-2nc2c1CCCC2`, the T/C [14] is reported as 129 % of control, the T/C [12] is reported as 133 % of control [5 of 6 alive] and the T/C [16] is reported as 126 % of control.
